Patent publication US7252950B1, “Assays for detecting modulators of cytoskeletal function” (priority 1997, dated 2007)
For at least one compound, name, drawing or mass did not settle the structure.

Chains of the proteins cited; added tags and fusions are not shown.
UniProt Q02224, whole entry, species assumed: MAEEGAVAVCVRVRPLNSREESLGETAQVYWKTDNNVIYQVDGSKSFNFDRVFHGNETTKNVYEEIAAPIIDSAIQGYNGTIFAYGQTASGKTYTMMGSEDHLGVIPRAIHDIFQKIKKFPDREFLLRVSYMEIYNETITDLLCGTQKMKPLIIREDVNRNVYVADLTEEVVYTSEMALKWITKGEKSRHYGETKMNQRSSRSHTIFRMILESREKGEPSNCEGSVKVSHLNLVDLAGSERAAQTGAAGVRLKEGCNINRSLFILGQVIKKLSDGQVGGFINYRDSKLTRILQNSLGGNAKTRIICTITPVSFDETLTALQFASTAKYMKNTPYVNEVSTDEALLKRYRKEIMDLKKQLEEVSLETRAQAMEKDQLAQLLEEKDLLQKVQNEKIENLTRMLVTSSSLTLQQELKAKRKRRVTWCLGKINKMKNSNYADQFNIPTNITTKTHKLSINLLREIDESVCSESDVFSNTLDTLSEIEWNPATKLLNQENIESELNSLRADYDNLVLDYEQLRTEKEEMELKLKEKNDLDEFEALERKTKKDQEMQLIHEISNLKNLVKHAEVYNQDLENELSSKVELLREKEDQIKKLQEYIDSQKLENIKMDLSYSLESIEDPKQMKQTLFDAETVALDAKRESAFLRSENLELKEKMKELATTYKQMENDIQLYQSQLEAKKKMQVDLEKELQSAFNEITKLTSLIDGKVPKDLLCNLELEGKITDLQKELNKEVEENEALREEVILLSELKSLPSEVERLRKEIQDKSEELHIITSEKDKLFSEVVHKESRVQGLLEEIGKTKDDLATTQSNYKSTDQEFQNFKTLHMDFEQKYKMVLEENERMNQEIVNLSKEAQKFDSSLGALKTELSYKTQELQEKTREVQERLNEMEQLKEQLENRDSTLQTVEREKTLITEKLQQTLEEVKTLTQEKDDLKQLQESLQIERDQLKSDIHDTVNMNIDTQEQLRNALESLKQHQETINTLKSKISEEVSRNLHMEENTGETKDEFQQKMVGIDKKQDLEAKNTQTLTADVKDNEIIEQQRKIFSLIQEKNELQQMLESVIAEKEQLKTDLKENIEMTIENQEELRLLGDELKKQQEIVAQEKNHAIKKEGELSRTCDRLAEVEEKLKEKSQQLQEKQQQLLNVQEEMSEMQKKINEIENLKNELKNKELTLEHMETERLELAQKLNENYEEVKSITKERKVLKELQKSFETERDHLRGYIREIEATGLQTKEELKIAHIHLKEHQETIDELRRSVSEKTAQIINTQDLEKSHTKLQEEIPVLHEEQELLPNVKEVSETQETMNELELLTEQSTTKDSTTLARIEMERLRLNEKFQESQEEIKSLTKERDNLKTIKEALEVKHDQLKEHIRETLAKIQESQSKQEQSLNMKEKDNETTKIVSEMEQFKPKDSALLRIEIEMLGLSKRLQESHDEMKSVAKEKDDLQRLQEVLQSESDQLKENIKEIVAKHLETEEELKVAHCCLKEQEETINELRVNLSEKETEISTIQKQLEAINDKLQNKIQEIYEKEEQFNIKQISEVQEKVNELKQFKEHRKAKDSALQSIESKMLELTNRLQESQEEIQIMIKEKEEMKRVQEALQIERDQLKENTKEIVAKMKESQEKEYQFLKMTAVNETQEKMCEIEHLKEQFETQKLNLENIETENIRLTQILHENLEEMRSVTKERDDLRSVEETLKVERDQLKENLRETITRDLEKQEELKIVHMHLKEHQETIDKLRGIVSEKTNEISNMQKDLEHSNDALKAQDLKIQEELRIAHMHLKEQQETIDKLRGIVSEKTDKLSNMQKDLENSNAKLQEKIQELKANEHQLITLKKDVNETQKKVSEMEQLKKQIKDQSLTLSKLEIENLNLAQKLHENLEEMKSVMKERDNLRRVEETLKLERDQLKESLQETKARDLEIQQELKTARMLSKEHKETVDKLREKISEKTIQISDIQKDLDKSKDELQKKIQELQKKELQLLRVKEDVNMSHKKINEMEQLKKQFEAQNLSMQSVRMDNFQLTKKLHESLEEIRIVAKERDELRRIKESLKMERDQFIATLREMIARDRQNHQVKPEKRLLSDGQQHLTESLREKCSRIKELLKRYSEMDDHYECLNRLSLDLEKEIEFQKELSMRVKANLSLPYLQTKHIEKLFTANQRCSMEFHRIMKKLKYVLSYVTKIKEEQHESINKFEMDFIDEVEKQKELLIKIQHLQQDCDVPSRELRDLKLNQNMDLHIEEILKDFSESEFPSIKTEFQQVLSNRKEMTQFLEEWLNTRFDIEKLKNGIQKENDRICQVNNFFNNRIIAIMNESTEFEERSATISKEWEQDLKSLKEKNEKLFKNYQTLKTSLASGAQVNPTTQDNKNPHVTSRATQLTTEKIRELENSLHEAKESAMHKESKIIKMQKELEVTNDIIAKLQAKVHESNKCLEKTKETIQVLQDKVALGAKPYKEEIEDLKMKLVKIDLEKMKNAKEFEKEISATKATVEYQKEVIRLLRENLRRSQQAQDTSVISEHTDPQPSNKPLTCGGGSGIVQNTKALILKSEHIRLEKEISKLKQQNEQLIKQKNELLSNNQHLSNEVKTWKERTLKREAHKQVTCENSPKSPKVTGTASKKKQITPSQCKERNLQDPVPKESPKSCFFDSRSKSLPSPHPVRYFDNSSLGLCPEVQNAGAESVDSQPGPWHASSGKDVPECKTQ

Columns and labels:
Experiment in all cases: ATPase activity assay, specificity panel
Format in all cases: biochemical
CENP-E = CENP-E (Homo sapiens, UniProt Q02224); conditions: at 6 μM tubulin, read-out: Concentration causing 50% inhibition of enzymatic activity (C50)
[1] = molecular target: T1, K411 (first 411 amino acids of Drosophila kinesin) (Drosophila melanogaster, UniProt P17210); conditions: K411, at 2 μM tubulin; read-out: Concentration causing 50% inhibition of enzymatic activity (C50)
T1 construct: first 411 amino acids of Drosophila kinesin

[2] = molecular target: T2, K5-351 (amino acids 5-351 of Drosophila kinesin) (Drosophila melanogaster, UniProt P17210); conditions: K5-351, at 2 μM tubulin; read-out: Concentration causing 50% inhibition of enzymatic activity (C50)
T2 construct: kinesin heavy chain fragment containing amino acids 5-351 of the wild type protein; hexahistidine (C); made in house; host or cells: bacterial cells (IPTG induced)
T2 sequence (P17210 5-351): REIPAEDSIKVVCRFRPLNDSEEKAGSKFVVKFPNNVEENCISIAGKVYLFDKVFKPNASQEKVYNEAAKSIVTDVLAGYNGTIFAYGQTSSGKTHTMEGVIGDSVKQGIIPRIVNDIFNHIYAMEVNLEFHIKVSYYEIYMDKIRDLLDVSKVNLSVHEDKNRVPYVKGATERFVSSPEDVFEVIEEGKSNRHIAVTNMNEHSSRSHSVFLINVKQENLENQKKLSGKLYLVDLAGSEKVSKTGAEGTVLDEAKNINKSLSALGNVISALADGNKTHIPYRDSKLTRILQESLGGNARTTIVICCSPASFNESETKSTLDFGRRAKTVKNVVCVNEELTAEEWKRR

Apyrase = molecular target: T3, Apyrase (Solanum tuberosum, UniProt P80595); conditions: highest used inhibitor concentration 136 μM, read-out: Concentration causing 50% inhibition of enzymatic activity (C50)
T3 sequence (P80595 1-454): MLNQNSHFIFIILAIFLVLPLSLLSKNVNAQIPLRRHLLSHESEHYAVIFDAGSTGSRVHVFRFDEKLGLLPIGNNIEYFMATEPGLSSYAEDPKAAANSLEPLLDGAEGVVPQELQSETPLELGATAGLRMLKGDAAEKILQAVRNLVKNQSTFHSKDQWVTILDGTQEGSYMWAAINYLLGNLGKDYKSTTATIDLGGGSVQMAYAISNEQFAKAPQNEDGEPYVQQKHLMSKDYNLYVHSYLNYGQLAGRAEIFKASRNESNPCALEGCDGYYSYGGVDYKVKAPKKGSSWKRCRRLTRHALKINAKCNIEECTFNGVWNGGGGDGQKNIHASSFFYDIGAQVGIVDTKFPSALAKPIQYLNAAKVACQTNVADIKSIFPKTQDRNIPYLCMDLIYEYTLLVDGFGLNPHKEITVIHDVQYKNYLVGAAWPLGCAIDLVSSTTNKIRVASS

How did the IC50 (CENP-E) turn out when `CC1(C)CCC[C@]2(C)O[C@H]3CC[C@@]4(C)[C@@H](CC[C@]5(C)[C@@H]4CC[C@]4(C)c6c(OS(=O)(=O)O)ccc(OS(=O)(=O)O)c6C[C@@H]54)[C@]3(C)CC[C@@H]12` [adociasulfate] was run?
Its IC50 is 10000 nM.

What about the IC50 [1] of the same compound?
The IC50 was 2000 nM.

And the IC50 [2]?
The IC50 was 2000 nM.

And the IC50 (Apyrase)?
Its IC50 is > 136000 nM.
